This note sets out measurements from PubChem BioAssay AID662 (National Center for Advancing Translational Sciences (NCATS), 2007).

This is one part of the list. The main result of the screen is listed elsewhere. These columns were measured beside it and carry no call. Most of these compounds were active or inconclusive in the main read-out, so they are no random draw. Potencies come from curve fits of mixed quality, noted in brackets.

By AC50 is commonly meant the concentration giving half of the maximal activity seen.

This experiment is described as follows: Cell signaling CRE-BLA (Fsk stim). To be noted: CHO CRE-bla reporter (cAMP response element driving beta-lactamase), forskolin EC10, beta-lactamase ratio; measured here: 460 nm blue channel. Summed up:
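CHO CRE-bla cells, overnight plating in Opti-MEM with 0.5% dialyzed FBS; cpd titration + EC10 NKH 477, 3 h 37 °C; CCF4 2 h RT; ex 405/em 460 vs 530 ratio → %Activity, AC50.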
On to `Cc1c(C(=O)Nc2ccc(N3CCOCC3)cc2)oc2ccccc12`, for which the AC50 is 25.1 µM [rising, single point].

On to `N#CC1=C(N)OC(c2ccccc2)=C(C#N)C1c1ccc2c(c1)OCO2` (stereo unspecified), for which the AC50 is 0.00316 µM [falling, full curve].

`Nc1ccc2cc3ccccc3cc2c1`: the AC50 was 25.1 µM [rising, partial curve].

In the case of `COc1ccc(C(=O)N2CCC3(CCN(Cc4ccc(C#N)cc4)CC3)CC2)cc1`, the concentration at half-maximal activity (AC50) is 20 µM [rising, single point].

On to `O=C(CSc1nnc(-c2ccc(NS(=O)(=O)c3ccccc3)cc2)o1)NCC1CCCO1` (stereo unspecified), for which the AC50 is 5.01 µM [falling, partial curve].

`CC(=O)Nc1cccc(NC(=O)c2c(-c3c(Cl)cccc3Cl)noc2C)c1`: the half-maximal activity concentration (AC50) was 1.26 µM [falling, partial curve, poor fit].

Regarding `Cc1ccccc1Nc1nc(N)nc(CSc2nnnn2-c2ccccc2)n1`, the concentration at half-maximal activity (AC50) was 10 µM [rising, partial curve].

Regarding `COC(=O)[C@@]1(Cc2ccc(OC)cc2)[C@H]2c3cc(C(=O)N(C)C)n(Cc4ccc(C)c(F)c4F)c3C[C@H]2CN1C(=O)c1ccccc1`, the AC50 was 25.1 µM [rising, partial curve].

Turning to `CCOC(=O)CNC(=O)C(Cc1ccccc1)NS(=O)(=O)c1cccs1` (stereo unspecified), the concentration at half-maximal activity (AC50) is 0.398 µM [falling, partial curve].

With `COc1ccc(C2C(C(=O)N3CCN(c4ccc(OC)cc4)CC3)c3ccccc3C(=O)N2C)cc1` (stereo unspecified), the AC50 was 0.00398 µM [falling, full curve, poor fit].

On to `Cc1ccccc1NC(=O)N1CCCC(c2nc(-c3ccc(C(C)C)cc3)no2)C1` (stereo unspecified), for which the AC50 is 12.6 µM [falling, partial curve, poor fit].

Consider `COc1cc2c(cc1NC(=O)CN(C)Cc1nc3ccccc3c(=O)[nH]1)oc1ccccc12`, for which the AC50 is 2.51 µM [rising, partial curve].

`O=C(Cc1cn2ccsc2n1)OCc1nc2ccccc2s1`: the half-maximal activity concentration (AC50) was 0.158 µM [falling, full curve].

Turning to `Cc1n[nH]c(=O)nc1NCC1CCCO1` (stereo unspecified), the AC50 is 1 µM [falling, single point].

For the compound `O=C(CCn1c(=O)oc2ccccc21)Nc1ccon1`, the half-maximal activity concentration (AC50) was 2 µM [rising, single point].

In the case of `Cc1cc(N2CCCC2)n2nc(C)nc2n1`, the AC50 is 12.6 µM [rising, single point].

For the compound `CCC(=O)c1cc2c(cc1NC(=O)C(C)C)OCCO2`, the AC50 was 10 µM [rising, single point].

`COc1cc2cc(C(c3nnnn3C3CCCC3)N(C)C3CCCCC3)c(=O)[nH]c2cc1OC` (stereo unspecified): the AC50 was 10 µM [rising, partial curve].

On to `Cn1c(=O)[nH]c(=O)c2c1nc(N1CCCCC1)n2CCOc1ccccc1`, for which the half-maximal activity concentration (AC50) is 3.98 µM [rising, full curve, poor fit].

In the case of `CC(=O)n1nc(-c2ccccc2)nc1NCc1ccc(F)cc1`, the concentration at half-maximal activity (AC50) is 0.00316 µM [falling, full curve, poor fit].

Take `CCC(=O)c1cc2c(C)cc(=O)oc2c(C)c1O`: the concentration at half-maximal activity (AC50) was 2.51 µM [rising, full curve].

Consider `CCOC(=O)c1cnc(SCC(=O)Nc2ccc(NC(=O)CC)c(OC)c2)nc1N`, for which the concentration at half-maximal activity (AC50) was 20 µM [rising, single point].

For the compound `CCCCOC(=O)CCn1c(=S)oc2ccccc21`, the half-maximal activity concentration (AC50) is 10 µM [rising, single point].

Take `CCc1cccc(C)c1NC(=O)CSc1nc2ccccc2n1CC(=O)N(C)C`: the concentration at half-maximal activity (AC50) is 10 µM [rising, single point].

In the case of `c1ccc(Cn2nnc3c(Nc4ccc5c(c4)OCO5)nc(C4CC4)nc32)cc1`, the half-maximal activity concentration (AC50) was 10 µM [rising, partial curve].

Take `COc1ccc(C2C3=C(CCCC3=O)Nc3nc(C(F)(F)F)nn32)c(OC)c1OC` (stereo unspecified): the AC50 was 2 µM [rising, partial curve].

Take `CCc1nc(OCCN(CC)CC)c2oc3ccccc3c2n1`: the concentration at half-maximal activity (AC50) is 25.1 µM [rising, single point].

On to `O=C(CSc1ncn(-c2ccccc2)n1)Nc1nc2c(s1)CCCC2`, for which the AC50 is 20 µM [rising, single point].

As for `O=C1N(CN2CCN(c3cccc(Cl)c3)CC2)c2ccccc2C12OCCCO2`, the AC50 is 3.16 µM [falling, full curve].

Regarding `Cc1nc2cnc(Oc3cccc(Cl)c3)nc2n(C[C@H]2CCCO2)c1=O`, the AC50 is 10 µM [rising, single point].

Regarding `O=C(OCC(=O)N1CCOCC1)c1ccc[nH]c1=O`, the concentration at half-maximal activity (AC50) is 3.16 µM [rising, single point].

As for `COC(=O)c1ccc(NC(=O)CSc2nnc(Cc3cccn3C)n2-c2ccc(F)cc2)cc1`, the AC50 was 12.6 µM [falling, partial curve].

As for `COc1cc(NC(=O)c2ccco2)c(OC)cc1NC(=O)CSc1ncc(-c2ccc(F)cc2)[nH]1`, the AC50 is 15.8 µM [rising, single point].

Consider `CC1(C)CC(C)(O)P(=O)(c2ccccc2)O1` (stereo unspecified), for which the AC50 is 0.00316 µM [falling, full curve, poor fit].

Turning to `O=C(Nc1ccc2oc(-c3ccncc3)nc2c1)c1ccccc1F`, the AC50 was 12.6 µM [rising, partial curve].

In the case of `O=C(C1CCN(c2ccc(N3CCOCC3)nn2)CC1)N1CCc2ccccc2C1`, the AC50 is 25.1 µM [rising, single point].

With `CCN1C(=O)c2cccc3c(NC(=O)C4CCCCC4)ccc1c23`, the concentration at half-maximal activity (AC50) was 7.94 µM [rising, partial curve].

As to `CCNc1ncc2nc(-c3ccc(Cl)cc3)c(=O)n(C[C@H]3CCCO3)c2n1`, the AC50 was 10 µM [rising, partial curve].

For `Cn1cccc1C(=O)N1CCC2(CCCN(C(c3ccccc3)c3ccccc3)C2)CC1`, the half-maximal activity concentration (AC50) is 3.98 µM [rising, partial curve].

Consider `Cc1ccc(C)c(S(=O)(=O)NCCOC(=O)Nc2sc(=S)n(C)c2C)c1`, for which the half-maximal activity concentration (AC50) was 0.398 µM [rising, full curve].

Consider `COc1cc(OC)nc(NC(=O)CN2CCN(c3ccc(F)cc3)CC2)n1`, for which the half-maximal activity concentration (AC50) was 3.98 µM [falling, partial curve].

For `COCCn1c(=O)c(-c2cc(F)cc(F)c2)nc2cnc(N(C)C)nc21`, the AC50 was 12.6 µM [rising, partial curve].

On to `COC(=O)c1cccc(CSc2nnc(C)s2)c1`, for which the concentration at half-maximal activity (AC50) was 25.1 µM [rising, single point].

`CC(OC(=O)c1nn(C)c(=O)c2ccccc12)C(=O)NCc1ccc2c(c1)OCO2` (stereo unspecified): the AC50 is 12.6 µM [rising, single point].

Regarding `Cc1cc(C)nc(Sc2c(C)nn(-c3ccccc3)c2C)n1`, the concentration at half-maximal activity (AC50) was 6.31 µM [falling, partial curve, poor fit].

In the case of `CCOc1ccc(NC(=O)C(CC)NC(=O)c2ccccc2CO)cc1` (stereo unspecified), the AC50 was 0.126 µM [rising, full curve].

With `CCOC(=O)C1CCN(C(=O)c2cc3cc4cc(OC)ccc4nc3o2)CC1`, the AC50 was 1.26 µM [rising, full curve].

Consider `N=c1c(C(=O)NCc2ccco2)cc2c(=O)n3ccccc3nc2n1Cc1ccccc1`, for which the half-maximal activity concentration (AC50) was 12.6 µM [rising, partial curve].

For the compound `CCc1cc(C(=O)Cc2ccc(F)cc2)c(O)cc1O`, the AC50 is 20 µM [falling, single point].

For the compound `CC(=O)N1C2(C=CC1(C)C(=O)NCc1ccc(C)o1)CCCCC2` (stereo unspecified), the AC50 was 12.6 µM [falling, single point].

`Cc1cc(NC(=O)c2noc3c2CCCC3)nn1Cc1ccc(Cl)cc1`: the half-maximal activity concentration (AC50) is 7.94 µM [rising, partial curve, poor fit].

As for `Cc1nnc(SCc2cc(=O)n3[nH]cnc3n2)s1`, the AC50 was 25.1 µM [rising, single point].

For `CCOCCCNC(=O)CCNS(=O)(=O)c1ccc(C)cc1`, the AC50 was 20 µM [falling, single point].

Take `COc1ccc(CCNC(=O)CCCn2c(SCC#N)nc3ccccc3c2=O)cc1OC`: the AC50 was 10 µM [rising, partial curve, poor fit].

Regarding `C=CCn1c(=O)c(C(=O)Nc2ccccc2OC)c(O)c2ccccc21`, the AC50 is 1 µM [falling, partial curve].

Consider `COc1ccc(S(=O)(=O)N2CCN(c3ccc4nnc(-c5ccc(F)cc5)n4n3)CC2)cc1`, for which the AC50 was 10 µM [rising, partial curve].

In the case of `COc1ccc(C[C@H](C)NC[C@@H](O)c2ccc(O)c(NC=O)c2)cc1`, the AC50 is 31.6 µM [falling, partial curve, poor fit].

With `COC(=O)c1ccc(COc2ccc(C3C4=C(CCCC4=O)Nc4onc(C)c43)cc2)cc1` (stereo unspecified), the concentration at half-maximal activity (AC50) was 7.94 µM [rising, partial curve].

Turning to `COc1nccc(Nc2ccccc2)c1C#N`, the concentration at half-maximal activity (AC50) is 25.1 µM [rising, single point].

`CC(=O)N1CCc2cc(S(=O)(=O)NC(C(=O)Nc3nc(C)cs3)C(C)C)ccc21` (stereo unspecified): the AC50 was 0.0158 µM [falling, full curve, poor fit].

For the compound `CCOC(=O)c1c(C)[nH]c(C(=O)COC(=O)c2ccccc2NC(=O)c2ccco2)c1C`, the concentration at half-maximal activity (AC50) is 1.58 µM [rising, full curve].

As for `CCOC(=O)c1ccc(N=c2sc(C(=O)OC)cc(=O)n2CCCN2CCOCC2)cc1`, the AC50 was 12.6 µM [falling, partial curve].

For the compound `COc1cc2cc(C(=O)Nc3ccccc3)c(N)nc2cc1OC`, the AC50 is 2 µM [rising, full curve].

`Cc1ccc(NC(=O)c2ccccc2)s1`: the half-maximal activity concentration (AC50) was 0.01 µM [rising, full curve, poor fit].

As for `O=S(=O)(NC1CCCCC1NS(=O)(=O)c1ccc(F)cc1)c1ccc(F)cc1` (stereo unspecified), the AC50 is 0.00398 µM [falling, full curve, poor fit].

Regarding `COc1ccc2[nH]cc(CCNc3nc(-c4ccc(N(C)C)cc4)nc4ccccc34)c2c1`, the concentration at half-maximal activity (AC50) is 1 µM [rising, full curve].
